The source of these data is PubChem BioAssay AID192 (DTP/NCI, 2004).

The list does not hold the whole screen: it is rich in T/C values a quarter to a half above the control, in often repeated tests (any T/C) and in doses without a T/C. Other doses and runs of a compound stand elsewhere. T/C is the treated group as % of the vehicle group. Some doses have a count of surviving animals in place of a T/C: the source holds a T/C of zero for them, seemingly a mark for toxic or unscored doses. Some survivor counts are full or nearly so, which does not show that the dose was tolerated: the source hardly ever lists a survival T/C far under the control, and the zero likely stands for such cases as well. Counts of survivors are from the toxicity check (mostly the fifth day) where no day follows; animals may have died later. Schedule codes are those of the source, read here as Q, the interval in days (D) or hours (H), X, the number of doses. Counts like (3×) say how often a value occurs here. Some entries hold several experiments; the values are given in rising order. For survival time, this PubChem deposit counts one and a half times the control or more as active, and values a quarter to a half above the control carry no call in these data; other NCI protocols may use other cut-offs. Some T/C values carry the count of animals alive at the toxicity check (mostly the fifth day); where none is given, no animal had died by that day. Square brackets hold non-standard residues; d marks the D form. Peptide text beside a SMILES is read from it. * marks the point of attachment. ξ: configuration not given here. ξAsp(βξ-Me) = CC(C(=O)O)C(N)C(=O)O; X4 = CC(N*)C1NC(=O)C2CCCCN2C1=O; ξAbu(3ξ-NH2) = CC(N)C(N)C(=O)O; X3 = CCC(C)CCC/C=C/CC(=O)*

The test system of this assay is BDF1 mice, B16 melanoma ip, median survival T/C. The experiment in a line: NCI In Vivo Anticancer Drug Screen. Data for tumor model B16 Melanoma (intraperitoneal) in B6D2F1 (BDF1) mice. As to conditions: T/C endpoint: median survival time, higher T/C = longer survival. The method in brief:
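Antitumor activity is assessed in mice bearing a transplanted tumor, with survival or tumor size compared against vehicle-dosed controls and expressed as T/C.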

[1] abbreviates: dose: 25.0 mg/kg/injection, schedule: Q01DX009 (ip), vehicle: Klucel (hydroxypropylcellulose) (HPC).
[2] abbreviates: dose: 50.0 mg/kg/injection, schedule: Q01DX009 (ip), vehicle: Klucel (hydroxypropylcellulose) (HPC).
Setting [3] is: dose: 100.0 mg/kg/injection, schedule: Q01DX009 (ip), vehicle: Klucel (hydroxypropylcellulose) (HPC).
Setting [4] is: dose: 200.0 mg/kg/injection, schedule: Q01DX009 (ip), vehicle: Klucel (hydroxypropylcellulose) (HPC).
Where [5] appears, read: dose: 400.0 mg/kg/injection, schedule: Q01DX009 (ip), vehicle: saline + alcohol.
[6] abbreviates: dose: 50.0 mg/kg/injection, schedule: Q01DX009 (ip), vehicle: saline with Tween-80.
Setting [7] is: dose: 100.0 mg/kg/injection, schedule: Q01DX009 (ip), vehicle: saline with Tween-80.
[8] abbreviates: dose: 200.0 mg/kg/injection, schedule: Q01DX009 (ip), vehicle: saline with Tween-80.
The mark [9] stands for this setting: dose: 400.0 mg/kg/injection, schedule: Q01DX009 (ip), vehicle: saline with Tween-80.
Setting [10] is: dose: 50.0 mg/kg/injection, schedule: Q01DX009 (ip), vehicle: saline.
[11] abbreviates: dose: 200.0 mg/kg/injection, schedule: Q01DX009 (ip), vehicle: saline.
[12] abbreviates: dose: 6.25 mg/kg/injection, schedule: Q01DX009 (ip), vehicle: Klucel (hydroxypropylcellulose) (HPC).

`CS(=O)(=O)OCCCOS(C)(=O)=O`: the survivor count runs as follows: under setting [1], 10 of 10; under setting [2], 10 of 10; under setting [3], 10 of 10; under setting [4], 8 of 10.
As to `CC(=O)Nc1ccc(Cl)c(Cl)c1`, the survivor count under setting [4] is 5 of 10.
Consider `COc1cc(OC)c(NC(=O)NC(C)C)cc1Cl`, for which the survivor count by setting is: (dose: 100.0 mg/kg/injection, schedule: Q01DX009 (ip), vehicle: saline + alcohol) 9 of 10; (dose: 200.0 mg/kg/injection, schedule: Q01DX009 (ip), vehicle: saline + alcohol) 10 of 10; under setting [5], 10 of 10.
Take `O=S(=O)(c1ccc(NC(=S)N/N=C/c2ccccc2O)cc1)N1CCCCC1`: the survivor count was 9 of 10 and 10 of 10 (dose: 12.5 mg/kg/injection, schedule: Q01DX009 (ip), vehicle: olive oil, sesame oil, peanut oil); 10 of 10 (dose: 25.0 mg/kg/injection, schedule: Q01DX009 (ip), vehicle: olive oil, sesame oil, peanut oil); 10 of 10 (dose: 50.0 mg/kg/injection, schedule: Q01DX009 (ip), vehicle: olive oil, sesame oil, peanut oil); 10 of 10 (2×) (dose: 100.0 mg/kg/injection, schedule: Q01DX009 (ip), vehicle: olive oil, sesame oil, peanut oil); 9 of 10 and 10 of 10 (dose: 200.0 mg/kg/injection, schedule: Q01DX009 (ip), vehicle: olive oil, sesame oil, peanut oil); 6 of 10 and 10 of 10 (dose: 400.0 mg/kg/injection, schedule: Q01DX009 (ip), vehicle: olive oil, sesame oil, peanut oil).
For `CCC(C)CCC/C=C/CC(=O)NC(CC(=O)O)C(=O)NC(C(=O)NC(CC(=O)O)C(=O)NCC(=O)NC(CC(=O)O)C(=O)NCC(=O)NC(C(=O)NC(C(=O)N1CCCC1C(=O)NC(C)C1NC(=O)C2CCCCN2C1=O)C(C)C)C(C)N)C(C)C(=O)O` (stereo not drawn) (X3-D[ξAsp(βξ-Me)]DGDG[ξAbu(3ξ-NH2)]VP-X4; configuration not given here), the survivor count under setting [5] is reported as 8 of 10.
`Cc1cc2nc(CO)[nH]c2cc1C`: the survivor count is 10 of 10 under setting [4] and 10 of 10 (dose: 400.0 mg/kg/injection, schedule: Q01DX009 (ip), vehicle: Klucel (hydroxypropylcellulose) (HPC)).
As to `Cc1cnc2c(NC(=O)CCl)nn(C)c2n1`, the survivor count under setting [4] is given as 7 of 10.
`CC(C)Nc1ccc(Nc2ccc(NC(C)C)cc2)cc1`: the survivor count runs as follows: (dose: 6.75 mg/kg/injection, schedule: Q04DX003 (ip), vehicle: alcohol) 4 of 10; (dose: 18.0 mg/kg/injection, schedule: Q01DX009 (ip), vehicle: alcohol) 8 of 10; (dose: 27.0 mg/kg/injection, schedule: Q04DX003 (ip), vehicle: alcohol) 4 of 10 and 5 of 10.
Consider `CC(=O)c1ccc(Oc2ccc(/C(C)=N\N=C(N)N)cc2)cc1`, for which the survivor count is on record as 4 of 6 under setting [6] and 0 of 6 under setting [7].
In the case of `CC(C)N(C(=O)c1ccc(C(=O)N(c2ccccc2)C(C)C)cc1)c1ccccc1`, the survivor count under setting [7] is on record as 10 of 10, the survivor count under setting [8] is on record as 10 of 10 and the survivor count under setting [9] is recorded as 10 of 10.
Turning to `Cc1c(N)nc([C@H](CC(N)=O)NC[C@H](N)C(N)=O)nc1C(=O)N[C@H](C(=O)N[C@H](C)[C@@H](O)CC(=O)N[C@H](C(=O)NC(O[C@@H]1O[C@@H](C)[C@@H](N)[C@@H](O)[C@H]1O)C(O)c1nc(-c2nc(C(=O)NCCCCN)cs2)cs1)[C@@H](C)O)[C@@H](O[C@@H]1O[C@@H](CO)[C@@H](O)[C@H](O)[C@@H]1O[C@H]1O[C@H](CO)[C@@H](O)[C@H](OC(N)=O)[C@@H]1O)c1c[nH]cn1` (some centres undefined), the T/C is 135 % of control (dose: 0.2 mg/kg/injection, schedule: Q01DX009 (ip), vehicle: saline) and 147 % of control (dose: 0.4 mg/kg/injection, schedule: Q01DX009 (ip), vehicle: saline).
In the case of `[Br][Pt].[NH-]CC[N-]CC[NH-]`, under setting [10], the survivor count was 10 of 10.
Regarding `Oc1ccc(/C=N\N=C\c2ccc(O)cc2)cc1`, the survivor count under setting [9] is on record as 9 of 10.
Consider `NC(Cc1ccc(N(CCCl)CCCl)cc1)C(=O)O` (centres undefined), for which the T/C reads like this: (dose: 1.0 mg/kg/injection, schedule: Q01DX009 (ip), vehicle: saline) 147 % of control; (dose: 4.0 mg/kg/injection, schedule: Q01DX009 (ip), vehicle: saline) 147 % of control; (dose: 8.0 mg/kg/injection, schedule: Q01DX009 (ip), vehicle: saline) 140 % of control. Also, the survivor count (dose: 16.0 mg/kg/injection, schedule: Q01DX009 (ip), vehicle: water) was 5 of 5.
As to `CN=C1CN(O)C(c2ccccc2)=c2cc(Cl)ccc2=N1`, the T/C was 126 % of control [9 of 10 alive] (dose: 6.25 mg/kg/injection, schedule: Q01DX009 (ip), vehicle: saline) and 144 % of control [9 of 10 alive] (dose: 25.0 mg/kg/injection, schedule: Q01DX009 (ip), vehicle: saline). Also, the survivor count reads like this: under setting [10], 10 of 10; under setting [11], 4 of 10.
With `COC(=Nc1ccccc1)SSC(C)C`, the survivor count under setting [8] was 0 of 10.
`Cc1c2ccc3ccccc3c2c[n+]2ccccc12`: the survivor count (dose: 40.0 mg/kg/injection, schedule: Q01DX009 (ip), vehicle: Klucel (hydroxypropylcellulose) (HPC)) was 0 of 10.
Consider `COc1cc2cc[n+](C)c(Cc3ccccc3)c2cc1OC`, for which the survivor count under setting [2] was 3 of 10.
Turning to `CN(C)c1ncnc2c1ncn2C1OC(CO)C(N)C1O` (centres undefined), the survivor count (dose: 100.0 mg/kg/injection, schedule: Q01DX009 (ip), vehicle: saline) is given as 9 of 10.
`Nc1nc2c(ncn2C2OC(CO)C(O)C2N)c(=O)[nH]1` (centres undefined): the T/C under setting [11] was 130 % of control.
For the compound `CCOC(=O)c1ccc(OC(=O)Nc2ccccc2OC)cc1`, the survivor count under setting [9] is on record as 10 of 10.
On to `C/C(=N\NC(N)=O)c1cccc(/C(C)=N/NC(N)=O)n1`, for which the survivor count under setting [8] is recorded as 9 of 10.
For `OC(CCN1CCCCC1)(c1ccccc1)C1CC2C=CC1C2` (centres undefined), the survivor count is 10 of 10 under setting [12]; 9 of 10 and 10 of 10 under setting [1]; 10 of 10 under setting [2]; 9 of 10 under setting [3].
As to `CCN(CCCCOC(=O)c1ccc(OC)c(OC)c1)C(C)Cc1ccc(OC)cc1` (centres undefined), under “dose: 10.62 mg/kg/injection, schedule: Q01DX009 (ip), vehicle: saline”, the T/C is 140 % of control. Besides, the survivor count by setting is: (dose: 85.0 mg/kg/injection, schedule: Q01DX009 (ip), vehicle: saline) 6 of 10; (dose: 170.0 mg/kg/injection, schedule: Q01DX009 (ip), vehicle: saline) 2 of 10; (dose: 170.0 mg/kg/injection, schedule: Q04DX003 (ip), vehicle: saline) 10 of 10; (dose: 255.0 mg/kg/injection, schedule: Q04DX003 (ip), vehicle: saline) 1 of 10.
`C[CH2][Pb]([CH2]C)([CH2]C)[O]C(=O)COc1ccccc1`: the survivor count is on record as 9 of 10 (dose: 6.0 mg/kg/injection, schedule: Q01DX009 (ip), vehicle: saline with Tween-80); 3 of 10 (dose: 12.5 mg/kg/injection, schedule: Q01DX009 (ip), vehicle: saline with Tween-80); 0 of 10 (dose: 25.0 mg/kg/injection, schedule: Q01DX009 (ip), vehicle: saline with Tween-80).
With `O=C(Nc1ccc(C(=O)O)cc1)Oc1ccc(N(CCCl)CCCl)cc1`, the T/C by setting is: under setting [12], 130 % of control; (dose: 6.25 mg/kg/injection, schedule: Q01DX009 (ip), vehicle: saline with Tween-80) 137 % of control; (dose: 12.5 mg/kg/injection, schedule: Q01DX009 (ip), vehicle: Klucel (hydroxypropylcellulose) (HPC)) 125 % of control. For the same compound, the survivor count under setting [2] is listed as 10 of 10 and the survivor count under setting [6] was 10 of 10.
In the case of `C1CCC2OCCOCCOC3CCCCC3OCCOCCOC2C1` (centres undefined), the survivor count by setting is: under setting [2], 2 of 10; under setting [3], 0 of 10.
